The reference is the same well before dosing, and untreated signal decays as well.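 Labels refer to human fibroblasts, largely primary: uterine (C12385, HUF), lung (H6013), bone (Hs27A), adrenal (HADF), skin (WS1), plus mammary HMF and breast cancer-associated Hs343T. Cancer lines are basal-like or mesenchymal-like triple-negative breast cancer. The paper counts as hits responses shifting over 3x the replicate standard deviation. The tissue of the other fibroblasts is not given here.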
System: MDAMB436
Assay: relative JC-1 red fluorescence (viability) vs pre-drug, coculture with fibroblast (fraction); higher = more viable cancer cells
Procedure: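 JC-1 labelled TNBC cells cocultured 1:1 (1,500 cells each) with CellTrace Violet stained primary or stromal fibroblasts in 384-well plates in FluoroBrite medium, treated with one of 42 anticancer drugs at 0.1, 1, 10 or 100 uM. JC-1 red fluorescence (mitochondrial integrity in cancer cells only) was read by plate reader every 8 h for 72 h. Values are normalised to each well's pre-drug value. The stock of one drug was tenfold lower, so its dose labels may be too high.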

CN(Cc1cnc2nc(N)nc(N)c2n1)c1ccc(C(=O)N[C@@H](CCC(=O)O)C(=O)O)cc1 [Methotrexate]
relative JC-1 red fluorescence
Details	8 h	16 h	24 h	32 h	40 h	48 h	56 h	64 h	72 h
0.1 µM, coculture fibroblast: C12385	0.7977	0.675	0.658	0.579	0.531	0.514	0.503	0.493	0.496
0.1 µM, coculture fibroblast: H6013	0.856	0.7207	0.708	0.706	0.695	0.725	0.691	0.689	0.669
0.1 µM, coculture fibroblast: H6019	0.69931	0.632	0.616	0.547	0.524	0.511	0.4864	0.471	0.4556
0.1 µM, coculture fibroblast: H6076	0.738	0.674	0.667	0.641	0.625	0.615	0.6421	0.655	0.66
0.1 µM, coculture fibroblast: H6231	0.753	0.6701	0.6535	0.572	0.554	0.517	0.5	0.485	0.469
0.1 µM, coculture fibroblast: HADF	0.81006	0.726	0.712	0.679	0.672	0.704	0.643	0.645	0.621
0.1 µM, coculture fibroblast: HCFa	0.845	0.776	0.732	0.726	0.667	0.671	0.621	0.627	0.591
0.1 µM, coculture fibroblast: HCPF	0.759	0.664	0.653	0.5839	0.571	0.537	0.522	0.508	0.493
0.1 µM, coculture fibroblast: HHSteC	0.836	0.764	0.748	0.721	0.72	0.743	0.689	0.68	0.635
0.1 µM, coculture fibroblast: HMF	0.725	0.667	0.66	0.617	0.605	0.572	0.582	0.565	0.565
0.1 µM, coculture fibroblast: HPFa	0.8528	0.767	0.73	0.682	0.666	0.682	0.616	0.613	0.575
0.1 µM, coculture fibroblast: HUF	0.8335	0.7108	0.6711	0.5995	0.54161	0.516	0.4948	0.482	0.476
0.1 µM, coculture fibroblast: Hs5	0.766	0.666	0.664	0.6119	0.6058	0.5713	0.5924	0.573	0.5882
0.1 µM, coculture fibroblast: Hs27A	0.7968	0.715	0.695	0.672	0.651	0.722	0.646	0.646	0.592
0.1 µM, coculture fibroblast: Hs343T	0.697	0.638	0.617	0.564	0.53858	0.50886	0.5056	0.49863	0.4963
0.1 µM, coculture fibroblast: WS1	0.78669	0.667	0.642	0.559	0.521	0.506	0.495	0.487	0.481
1 µM, coculture fibroblast: C12385	0.826	0.686	0.668	0.592	0.554	0.533	0.533	0.524	0.532
1 µM, coculture fibroblast: H6013	0.8406	0.7083	0.7003	0.6941	0.6924	0.727	0.702	0.705	0.683
1 µM, coculture fibroblast: H6019	0.737	0.658	0.63	0.552	0.519	0.5083	0.479	0.462	0.447
1 µM, coculture fibroblast: H6076	0.759	0.641	0.665	0.635	0.631	0.631	0.6709	0.693	0.705
1 µM, coculture fibroblast: H6231	0.778	0.693	0.653	0.5771	0.547	0.514	0.506	0.502	0.496
1 µM, coculture fibroblast: HADF	0.843	0.758	0.711	0.68	0.667	0.694	0.636	0.642	0.617
1 µM, coculture fibroblast: HCFa	0.8023	0.6921	0.659	0.622	0.594	0.607	0.543	0.537	0.483
1 µM, coculture fibroblast: HCPF	0.812	0.709	0.72	0.653	0.635	0.606	0.59081	0.571	0.555
1 µM, coculture fibroblast: HHSteC	0.833	0.75	0.722	0.691	0.697	0.707	0.652	0.635	0.597
1 µM, coculture fibroblast: HMF	0.7643	0.6252	0.6152	0.5764	0.557	0.526	0.528	0.523	0.5135
1 µM, coculture fibroblast: HPFa	0.9137	0.813	0.7764	0.7378	0.7276	0.7384	0.6739	0.6708	0.626
1 µM, coculture fibroblast: HUF	0.83575	0.71	0.665	0.577	0.519	0.486	0.465	0.447	0.438
1 µM, coculture fibroblast: Hs5	0.799	0.7	0.6803	0.6232	0.604	0.568	0.587	0.573	0.579
1 µM, coculture fibroblast: Hs27A	0.799	0.704	0.688	0.667	0.657	0.736	0.651	0.656	0.609
1 µM, coculture fibroblast: Hs343T	0.776	0.644	0.619	0.579	0.551	0.52	0.5148	0.50197	0.5036
1 µM, coculture fibroblast: WS1	0.792	0.648	0.6287	0.546	0.506	0.498	0.487	0.476	0.48
10 µM, coculture fibroblast: C12385	0.8348	0.7274	0.713	0.63	0.587	0.569	0.547	0.535	0.535
10 µM, coculture fibroblast: H6013	0.893	0.768	0.795	0.806	0.806	0.852	0.833	0.83	0.816
10 µM, coculture fibroblast: H6019	0.741	0.683	0.667	0.592	0.553	0.541	0.507	0.487	0.466
10 µM, coculture fibroblast: H6076	0.7466	0.6	0.606	0.564	0.548	0.535	0.5437	0.5474	0.55089
10 µM, coculture fibroblast: H6231	0.718	0.647	0.567	0.516	0.491	0.459	0.455	0.437	0.431
10 µM, coculture fibroblast: HADF	0.81857	0.736	0.706	0.661	0.633	0.658	0.59415	0.5962	0.555
10 µM, coculture fibroblast: HCFa	0.795	0.695	0.674	0.641	0.6197	0.641	0.591	0.596	0.556
10 µM, coculture fibroblast: HCPF	0.71889	0.59	0.5685	0.502	0.488	0.453	0.4393	0.425	0.4231
10 µM, coculture fibroblast: HHSteC	0.86	0.815	0.817	0.8	0.811	0.826	0.79	0.789	0.748
10 µM, coculture fibroblast: HMF	0.721	0.554	0.539	0.499	0.482	0.451	0.465	0.455	0.467
10 µM, coculture fibroblast: HPFa	0.8917	0.8	0.7866	0.7439	0.7401	0.76	0.6972	0.696	0.6507
10 µM, coculture fibroblast: HUF	0.826	0.7361	0.7267	0.651	0.606	0.578	0.561	0.556	0.561
10 µM, coculture fibroblast: Hs5	0.773	0.671	0.634	0.569	0.549	0.507	0.519	0.488	0.494
10 µM, coculture fibroblast: Hs27A	0.856	0.831	0.821	0.808	0.786	0.876	0.798	0.798	0.746
10 µM, coculture fibroblast: Hs343T	0.661	0.591	0.576	0.531	0.523	0.497	0.503	0.505	0.518
10 µM, coculture fibroblast: WS1	0.8045	0.7	0.672	0.598	0.555	0.543	0.521	0.501	0.5
100 µM, coculture fibroblast: C12385	0.7421	0.719	0.706	0.624	0.587	0.569	0.547	0.534	0.526
100 µM, coculture fibroblast: H6013	0.797	0.743	0.736	0.728	0.72	0.752	0.723	0.719	0.693
100 µM, coculture fibroblast: H6019	0.764	0.6962	0.696	0.635	0.605	0.596	0.577	0.555	0.537
100 µM, coculture fibroblast: H6076	0.794	0.609	0.579	0.533	0.504	0.481	0.4894	0.4906	0.486
100 µM, coculture fibroblast: H6231	0.724	0.625	0.5679	0.4979	0.46376	0.4287	0.426	0.4166	0.403
100 µM, coculture fibroblast: HADF	0.788	0.736	0.715	0.6813	0.679	0.7107	0.65009	0.65117	0.6141
100 µM, coculture fibroblast: HCFa	0.755	0.7098	0.663	0.617	0.585	0.603	0.541	0.539	0.489
100 µM, coculture fibroblast: HCPF	0.755	0.586	0.593	0.536	0.495	0.47	0.451	0.44333	0.435
100 µM, coculture fibroblast: HHSteC	0.833	0.769	0.735	0.693	0.687	0.698	0.646	0.64	0.6
100 µM, coculture fibroblast: HMF	0.768	0.552	0.537	0.475	0.447	0.421	0.423	0.42	0.428
100 µM, coculture fibroblast: HPFa	0.857	0.775	0.747	0.6913	0.693	0.716	0.655	0.645	0.602
100 µM, coculture fibroblast: HUF	0.831	0.731	0.72	0.639	0.595	0.58	0.558	0.551	0.555
100 µM, coculture fibroblast: Hs5	0.825	0.652	0.62	0.553	0.5187	0.4776	0.47917	0.4607	0.4544
100 µM, coculture fibroblast: Hs27A	0.811	0.703	0.672	0.645	0.62	0.685	0.602	0.602	0.537
100 µM, coculture fibroblast: Hs343T	0.78	0.604	0.544	0.49	0.455	0.414	0.407	0.395	0.4
100 µM, coculture fibroblast: WS1	0.761	0.692	0.652	0.576	0.537	0.524	0.5041	0.4786	0.4639

Source: the supplement of paper PMC6078165
